The source of these data is PMC9065108.

No constants are given. Whether binding was seen depends on the method and setting. In cells and extracts the contact can be indirect. Some binding calls cover weakened binding; strength is not graded here.

In this experiment the target is ferritin heavy chain (FTH), endogenous in U2OS cells (human (endogenous in U2OS)) (UniProt P02794). Description: co-IP; lysates of U2OS cells (untreated or treated with OSMI-1 or TMG for 24 h; OGT or OGA knock-down), IP lysis buffer (20 mM Tris-HCl, 150 mM NaCl, 1% NP-40, pH 7.5), antibodies against NCOA4, FTH or OGT and IgG with Protein A/G beads, 4 °C for 4 h, immunoblot.

B1: O-GlcNAc transferase (OGT), endogenous in U2OS cells (enzyme, UniProt O15294 1-1046)
chain: MASSVGNVADSTEPTKRMLSFQGLAELAHREYQAGDFEAAERHCMQLWRQEPDNTGVLLLLSSIHFQCRRLDRSAHFSTLAIKQNPLLAEAYSNLGNVYKERGQLQEAIEHYRHALRLKPDFIDGYINLAAALVAAGDMEGAVQAYVSALQYNPDLYCVRSDLGNLLKALGRLEEAKACYLKAIETQPNFAVAWSNLGCVFNAQGEIWLAIHHFEKAVTLDPNFLDAYINLGNVLKEARIFDRAVAAYLRALSLSPNHAVVHGNLACVYYEQGLIDLAIDTYRRAIELQPHFPDAYCNLANALKEKGSVAEAEDCYNTALRLCPTHADSLNNLANIKREQGNIEEAVRLYRKALEVFPEFAAAHSNLASVLQQQGKLQEALMHYKEAIRISPTFADAYSNMGNTLKEMQDVQGALQCYTRAIQINPAFADAHSNLASIHKDSGNIPEAIASYRTALKLKPDFPDAYCNLAHCLQIVCDWTDYDERMKKLVSIVADQLEKNRLPSVHPHHSMLYPLSHGFRKAIAERHGNLCLDKINVLHKPPYEHPKDLKLSDGRLRVGYVSSDFGNHPTSHLMQSIPGMHNPDKFEVFCYALSPDDGTNFRVKVMAEANHFIDLSQIPCNGKAADRIHQDGIHILVNMNGYTKGARNELFALRPAPIQAMWLGYPGTSGALFMDYIITDQETSPAEVAEQYSEKLAYMPHTFFIGDHANMFPHLKKKAVIDFKSNGHIYDNRIVLNGIDLKAFLDSLPDVKIVKMKCPDGGDNADSSNTALNMPVIPMNTIAEAVIEMINRGQIQITINGFSISNGLATTQINNKAATGEEVPRTIIVTTRSQYGLPEDAIVYCNFNQLYKIDPSTLQMWANILKRVPNSVLWLLRFPAVGEPNIQQYAQNMGLPQNRIIFSPVAPKEEHVRRGQLADVCLDTPLCNGHTTGMDVLWAGTPMVTMPGETLASRVAASQLTCLGCLELIAKNRQEYEDIAVKLGTDLEYLKKVRGKVWKQRISSPLFNTKQYTMELERLYLQMWEHYAAGNKPDHMIKPVEVTESA
For the molecule B1, the binding entry is listed as “binds”.
